Experimental data taken from US12053529B2, “Amino-reactive positively charged ATRP initiators that maintain their positive charge during synthesis of biomacro-initiators” (Carnegie Mellon University, priority 2018, dated 2024).
The name of at least one read-out is uncertain.

Experiments:
Details in all cases: displacement of HABA by biotin, absorbance at 500 nm, read-out: HABA binding, Kassoc
[1] = target: avidin, positive initiator (+)-pCBMA; assay: HABA binding (equilibrium, displacement by biotin), avidin (+)-pCBMA
avidin, native = assay: HABA binding (equilibrium, displacement by biotin), native avidin
[2] = target: avidin, neutral initiator (N); assay: HABA binding (equilibrium, displacement by biotin), avidin-neutral initiator
[3] = target: avidin, positive initiator (+); assay: HABA binding (equilibrium, displacement by biotin), avidin-positive initiator
[4] = target: avidin, neutral initiator (N)-pCBMA; assay: HABA binding (equilibrium, displacement by biotin), avidin (N)-pCBMA

O=C(O)c1ccccc1/N=N/c1ccc(O)cc1 [HABA, 4′-hydroxyazobenzene-2-carboxylic acid]
Kd [1]: 710 ± 10 nM
Kd (avidin, native): 2130 ± 90 nM
Kd [2]: 2100 ± 120 nM
Kd [3]: 2110 ± 100 nM
Kd [4]: 560 ± 10 nM
